Laboratory results: PubChem BioAssay AID540275 (National Center for Advancing Translational Sciences (NCATS), 2011)
In all, about 320,000 compounds went through this assay and about 620 (0.19%) were called active. This list was built around the results that the source calls inconclusive (neither active nor inactive); the mix of calls is not that of the screen. Rule as the data show it: active = activation above about 80%; inconclusive = between about 30% and that limit; inactive = weaker than that.

By UniProt entry, the sequences of proteins in these tests, tags left out.
UniProt Q8NER1, whole entry, looked up: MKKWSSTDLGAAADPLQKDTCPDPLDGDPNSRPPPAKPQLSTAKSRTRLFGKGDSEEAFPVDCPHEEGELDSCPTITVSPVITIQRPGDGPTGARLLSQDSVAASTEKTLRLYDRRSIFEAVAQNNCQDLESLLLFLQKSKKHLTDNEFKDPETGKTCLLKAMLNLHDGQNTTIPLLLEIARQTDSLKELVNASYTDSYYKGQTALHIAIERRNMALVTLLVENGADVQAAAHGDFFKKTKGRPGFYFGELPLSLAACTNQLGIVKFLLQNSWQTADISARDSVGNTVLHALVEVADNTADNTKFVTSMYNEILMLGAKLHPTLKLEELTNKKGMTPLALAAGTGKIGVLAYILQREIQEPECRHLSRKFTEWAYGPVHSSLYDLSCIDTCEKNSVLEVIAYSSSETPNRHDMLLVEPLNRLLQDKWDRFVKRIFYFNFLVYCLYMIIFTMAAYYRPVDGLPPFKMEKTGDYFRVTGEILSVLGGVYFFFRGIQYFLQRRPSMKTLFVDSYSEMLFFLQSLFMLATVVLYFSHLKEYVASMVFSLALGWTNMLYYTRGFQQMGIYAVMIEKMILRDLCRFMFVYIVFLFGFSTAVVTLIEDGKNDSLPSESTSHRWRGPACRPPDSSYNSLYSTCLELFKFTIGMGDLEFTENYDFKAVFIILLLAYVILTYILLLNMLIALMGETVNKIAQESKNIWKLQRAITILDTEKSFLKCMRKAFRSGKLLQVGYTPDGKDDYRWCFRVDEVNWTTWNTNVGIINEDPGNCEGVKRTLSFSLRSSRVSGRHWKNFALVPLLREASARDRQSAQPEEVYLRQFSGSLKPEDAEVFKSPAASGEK

molecular target: Transient receptor potential cation channel subfamily V member 1 (Homo sapiens) (UniProt Q8NER1); assay: HTS Assay for Compounds that Act as Agonists of the Vanilloid Receptor 1; settings: TRPV1-expressing cells, Fluo-8 calcium influx, agonist mode; at 8.33 µM, hits give high values; as to activation: 0% is about no effect
Summary of the method: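 Cells expressing TRPV1 were dye-loaded with Fluo-8 and read kinetically: 10 s baseline, 3 min after compound (agonist portion), then 2 min after EC20 capsaicin (allosteric enhancer portion). Calcium-bound dye fluorescence at 480/520 nm.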

Compound | activation
O=C(N/N=C\c1ccco1)c1cncc(Br)c1 | inactive: 2.29%
CN(C)c1nc(SCC#N)nc(N(C)C)n1 | inactive: 3.62%
CC1N(C)c2cc(NC(=O)c3ccco3)ccc2C1(C)C (stereo unspecified) | inconclusive: 56.1%
CNC(=S)Nc1ccc(C23CC4CC(CC(C4)C2)C3)cc1 | inconclusive: 59.9%
Cc1cccc2cc(CN(C(=O)c3cnccn3)C3CCCCC3)c(Cl)nc12 | inconclusive: 36.8%
O=C(CN1C(=O)NC2(CCCC2)C1=O)Nc1cc(C(F)(F)F)ccc1N1CCCCC1 | inconclusive: 39.8%
CCCn1nc(NC(C)=O)c2cc3cccc(C)c3nc21 | inactive: 10.4%
Cc1nnc2n(c1=O)C(CS(=O)(=O)c1ccc3ccccc3c1)CS2 (stereo unspecified) | inactive: -5.65%
COc1ccc(-c2ccnc3nc(Sc4ncc(C(F)(F)F)cc4Cl)nn23)cc1 | inconclusive: 32.5%
COc1ccc(C(=O)c2c3ccc(OC)cc3[n+]([O-])n2Cc2ccc(C(N)=O)cc2)cc1 | inconclusive: 38.4%
CCOC(=O)c1cnn(-c2nc(OCC)cc(OCC)n2)c1C | inconclusive: 37.7%
O=C(NC1CCCCCCC1)c1cc(-c2ccccn2)nc2ccccc12 | inconclusive: 38.7%
COc1ccccc1NC(=O)Cn1c(C)cc(=O)c2cccc(OC)c21 | inconclusive: 54.9%
CC1Cc2cc(/C=C3/SC(N4CCC(C(N)=O)CC4)=NC3=O)ccc2O1 (stereo unspecified) | inconclusive: 58.5%
COc1ccccc1C/C(N)=N/OC(=O)/C=C/c1ccccc1 | inactive: 5.77%
CCOC(=O)c1cc(CC)sc1NC(=O)COC(=O)c1cnccn1 | inactive: -4.1%
O=C(NCC1CC1)Nc1cccc(Cl)c1 | inactive: 21.9%
CCOC(=O)CCC(NC(=O)CCCC(=O)NC(CCC(=O)OCC)C(=O)OCC)C(=O)OCC (stereo unspecified) | inactive: 0.155%
NC(=O)COC(=O)c1ccc(-c2ccccc2)cc1 | inconclusive: 49.4%
O=c1c2c(ncn2C2CCCC2)n(Cc2ccccc2)c(=O)n1CCOc1ccccc1 | inconclusive: 51.4%
O=C(Nc1cccc(Cl)c1)N1CCN(C2c3ccccc3-c3ccccc32)CC1 | inconclusive: 33.4%
Cc1ccccc1NCC(=O)N/N=C/c1ccc([N+](=O)[O-])cc1 | inactive: 8.09%
CCCn1cc(S(=O)(=O)c2ccc(OC)cc2)c(=O)c2cc(OCC)ccc21 | inconclusive: 62.9%

Compound | activation
CCc1ccc(NC(=O)Cc2ccc(OC)cc2)cc1 | inconclusive: 39.2%
COc1ccccc1CNC(=O)COC(=O)CC1CC2CCC1C2 (stereo unspecified) | inconclusive: 48.4%
Cn1nnnc1SCC(=O)N1CCN(C(c2ccccc2)c2ccccc2)CC1 | inconclusive: 39.6%
Oc1cc2c(cc1O)C1c3ccc(O)c(O)c3OCC1(O)C2 (stereo unspecified) | inactive: -2.31%
Cc1cccc(CSc2ccc3nnc(-c4cccs4)n3n2)c1 | inactive: 1.39%
CCCCCCn1c(=O)[nH]c2c(c1=O)CCC2 | inconclusive: 41.4%
CC1CCCCC1NC(=O)NC(=O)CCl (stereo unspecified) | inactive: -2.15%
O=C1CCCc2nc(N3CCN(c4ccccc4)CC3)ncc21 | inactive: 2.28%
COCCCNC(=O)/C(C#N)=C/c1c(N2CCCCCC2)nc2ccccn2c1=O | inconclusive: 30.4%
COc1ccccc1NC(=O)CCS(=O)(=O)c1ccc2c(c1)oc(=O)n2C | inconclusive: 35.6%
Cc1ccc2c(C)c(C(=O)N3CCN(c4ncccn4)CC3)oc2c1C | inconclusive: 48.6%
COc1cccc(-c2csc(N3CCN(C(=S)Nc4ccccc4)CC3)n2)c1 | inactive: 4.63%
COc1cccc(-c2cc(C(F)(F)F)n3ncc(C(=O)N4CCc5ccccc5C4)c3n2)c1 | inconclusive: 30.9%
COc1ccc(CN(C(=O)CSc2nnc(-c3ccccc3F)o2)c2ccc(F)cc2)cc1 | inconclusive: 34%
CCOC(=O)N1C(=O)[C@](c2ccc(Cl)cc2)(C(C)C)N1C(=O)OCC | inconclusive: 30.1%
Cc1cccc(C(=O)Nc2cccc(OC(=O)c3cccc(C)c3)c2)c1 | inconclusive: 38.9%
O=C(CCNC(=O)Cn1cnc2ccccc2c1=O)NCC1CCCO1 (stereo unspecified) | inconclusive: 38%
Cc1ccc(NS(=O)(=O)c2ccc(C(C)(C)C)cc2)cn1 | inconclusive: 30.1%
O=C(N/N=C/c1ccc(Br)s1)c1c[nH]c2ccccc12 | inconclusive: 63.6%
C/C(CC(=O)c1ccccc1)=N\NC(=O)CC#N | inactive: -0.963%
CCCc1nc(NCc2ccccn2)c2nnn(Cc3ccccc3F)c2n1 | inconclusive: 61.8%
CCCNC(=O)c1c(CSc2ccccc2)noc1C(=O)NCc1ccccc1 | inconclusive: 33.8%
C=CCSc1nnc(-c2cc(C(C)(C)C)nn2Cc2ccc(F)cc2)n1C | inconclusive: 63.2%

Compound | activation
Cc1ccc2cc(/C=C(\C#N)C(N)=O)c(N3CCCCC3)nc2c1 | inconclusive: 56.8%
CCSC1=C(C#N)C(c2ccccc2C)CC(=O)N1 (stereo unspecified) | inactive: 1.15%
CC(C)Cn1nc(-c2ccccc2)c2ccccc2c1=O | inconclusive: 34.3%
O=C(CCc1ccccc1)N/N=C\c1cc2c(cc1Br)OCO2 | inconclusive: 39.9%
CC1CCN(C(=O)CCc2ccc(Oc3cc([N+](=O)[O-])cc([N+](=O)[O-])c3)cc2)CC1 | inconclusive: 36.1%
Cc1sc2ncnc(N3CCCCC3)c2c1C | inactive: 26.2%
NS(=O)(=O)c1ccc(N2N=C(c3ccc(Br)cc3)CC2c2ccc(F)cc2)cc1 (stereo unspecified) | inactive: -0.0837%
Cc1cc(C)n(-c2nc(NCC3CCCO3)c3c4c(sc3n2)COC(C)(C)C4)n1 (stereo unspecified) | inconclusive: 59.8%
Cc1ccc(CN2CC(C(=O)N3CCN(S(=O)(=O)c4ccccc4)CC3)CC2=O)cc1 (stereo unspecified) | inactive: 0.927%
O=C(CNC(=O)c1[nH]cnc1C(=O)N[C@@H](Cc1ccccc1)C(=O)OCc1ccccc1)OCc1ccccc1 | inconclusive: 35.4%
CCCc1cc(C(=O)NCCc2ccccc2)no1 | inconclusive: 59.3%
CCCOc1ccc(-c2cn3ccccc3n2)cc1[N+](=O)[O-] | inconclusive: 34.2%
CCOC(=O)C1(Cc2cccc(F)c2)CCN(C(=O)Cc2cccnc2)CC1 | inconclusive: 46.3%
Cc1nc2ccccc2n1/N=C/c1ccc([N+](=O)[O-])s1 | inconclusive: 68.9%
CC(=O)Nc1cccc(C(=O)Oc2cccc(C)c2)c1O | inconclusive: 35.6%
COc1ccc(Cl)cc1C(=O)Nc1nc2ccccc2[nH]1 | inconclusive: 44.3%
O=C(CCN1CCN(C/C=C/c2ccccc2)CC1)Nc1ccccc1F | inactive: -2.52%
COCCCNC(=O)CCc1c(C)nc2c(c(C)nn2-c2ccc(C)cc2)c1C | inconclusive: 77.8%
O=C(C1CCC1)N1CCN(c2ccc(Cl)cc2)CC1 | inconclusive: 72%
CC(=O)c1ccc(OCc2cc(C(=O)NCCc3ccc(Cl)cc3)no2)cc1 | inactive: -0.105%
CCCCOc1ccc(C(=O)Nc2cccc(C)n2)cc1 | inconclusive: 50.5%
CC(C)Cn1cc(C(=O)NC2CCN(Cc3ccccc3)CC2)c2c3ccccc3n(C)c2c1=O | inconclusive: 33.8%
Cc1ccc(NC(=O)Cc2ccccc2F)cc1S(=O)(=O)N1CCCCCC1 | inconclusive: 43.1%

Molecules from the list above containing two or more sulfur atoms, in the order listed:
Compound | activation
Cc1nnc2n(c1=O)C(CS(=O)(=O)c1ccc3ccccc3c1)CS2 (stereo unspecified) | inactive: -5.65%
Cc1cccc(CSc2ccc3nnc(-c4cccs4)n3n2)c1 | inactive: 1.39%
COc1cccc(-c2csc(N3CCN(C(=S)Nc4ccccc4)CC3)n2)c1 | inactive: 4.63%

Next part

Compound | activation
N#CCC(=O)N/N=C/c1ccc(N2N=C(c3ccccc3)CC2c2ccccc2)cc1 (stereo unspecified) | inactive: -1.01%
COC(=O)c1ccc(CNC(=O)COC(=O)CCC2CCCC2)cc1 | active: 84%
N#C/C(=C/c1ccc(N2CCCCCC2)o1)c1cccc(F)c1 | inconclusive: 32.3%
CC(C)(C)c1ccc(OCCC(=O)OCC(=O)Nc2cccnc2Cl)cc1 | inconclusive: 49.4%
COc1ccc(CCN(C)CC(O)COc2c(C)ccc(C)c2C)cc1OC (stereo unspecified) | inactive: 2.85%
CCn1c(COc2ccccc2)nnc1SCC(=O)NC1CCCCC1 | inactive: -7.59%
COc1ccc(Cl)cc1Nc1ncnc2sc(C)c(S(=O)(=O)N3CCC(C)CC3)c12 | inactive: 6.36%
Cc1ccc(NC(=O)c2cccc(S(=O)(=O)N(C)C3CCCCC3)c2)nc1 | inconclusive: 48.3%
COc1ccc([C@]23Cc4cc(OC)c(OC)cc4C(O2)c2c(c4ccccc4oc2=O)O3)cc1 | inactive
CCCCn1c(SCC(=O)N2c3ccccc3CCc3ccccc32)nc2c1c(=O)n(C)c(=O)n2C | inactive: -1.58%
COc1ccc2c(n1)Sc1nc3ccccc3nc1N2 | active: 110%
CCOC(=O)c1cnc2c(CC)cccc2c1NCCCN1CCOCC1 | inconclusive: 32.9%
CN(c1ccccc1)S(=O)(=O)c1ccc(Cl)c(C(=O)Nc2ccncc2)c1 | inconclusive: 56.7%
Cc1ccc(CS(=O)(=O)Cc2ccc(C(=O)NCc3cccnc3)o2)cc1 | inactive: -0.803%
Cc1ccccc1C(=O)N1CCN(c2ccc(NC(=O)c3ccco3)cc2Cl)CC1 | inconclusive: 33.6%
CC(=O)N/N=C/c1cc(C(C)(C)C)cc(/C=N/NC(C)=O)c1O | inactive: 4.34%
Cc1ccccc1CSCCNC(=O)CCSc1ccccc1 | inconclusive: 39.2%
S=C(Nc1cc(Cl)cc(Cl)c1)N1CCCC1 | inactive: 28.1%
COc1cccc(NS(=O)(=O)c2c(C)n(C)c(=O)n(C)c2=O)c1 | inactive: -5.5%
COc1ccc(CCNC(=O)c2ccc(Cl)cc2)cc1 | inconclusive: 56.1%
CCc1cc(=O)[nH]c(SCc2cccc3ccccc23)n1 | inactive: -0.966%
Brc1ccc(N/N=C(/N=Nc2nn[nH]n2)c2ccccc2)cc1 | inconclusive: 48.7%

Quoted from the listing (5 entries):
Compound | activation
CCn1c(COc2ccccc2)nnc1SCC(=O)NC1CCCCC1 | inactive: -7.59%
COc1ccc(Cl)cc1Nc1ncnc2sc(C)c(S(=O)(=O)N3CCC(C)CC3)c12 | inactive: 6.36%
Cc1ccc(NC(=O)c2cccc(S(=O)(=O)N(C)C3CCCCC3)c2)nc1 | inconclusive: 48.3%
COc1ccc([C@]23Cc4cc(OC)c(OC)cc4C(O2)c2c(c4ccccc4oc2=O)O3)cc1 | inactive
CCCCn1c(SCC(=O)N2c3ccccc3CCc3ccccc32)nc2c1c(=O)n(C)c(=O)n2C | inactive: -1.58%
